Drawing on article PMC4931556, this text covers binding for one molecule.

This assay deals with T1, N-FLAG-2xSTREP-SEPT6 (UniProt Q14141).
T1 sequence: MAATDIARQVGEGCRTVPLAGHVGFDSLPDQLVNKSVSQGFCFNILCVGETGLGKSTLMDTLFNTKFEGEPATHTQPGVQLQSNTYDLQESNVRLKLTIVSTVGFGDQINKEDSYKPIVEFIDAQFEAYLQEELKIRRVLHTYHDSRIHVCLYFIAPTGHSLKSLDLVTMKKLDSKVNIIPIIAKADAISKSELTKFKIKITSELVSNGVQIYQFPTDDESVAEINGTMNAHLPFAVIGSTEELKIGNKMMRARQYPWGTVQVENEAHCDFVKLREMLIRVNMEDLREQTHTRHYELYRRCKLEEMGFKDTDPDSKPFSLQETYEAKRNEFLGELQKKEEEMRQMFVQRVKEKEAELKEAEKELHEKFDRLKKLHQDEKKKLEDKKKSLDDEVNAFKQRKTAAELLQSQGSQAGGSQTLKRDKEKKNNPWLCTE
As to the kind of experiment: affinity purification with mass spectrometry; tandem affinity purification of FLAG-2xSTREP-SEPT6 from lysates of transfected HeLa cells (ANTI-FLAG M2 magnetic beads, 3xFLAG peptide elution, then STREP-Tactin magnetic beads, 2 h each at room temperature); lysis buffer 10 mM Tris/Cl pH 7.5, 150 mM NaCl, 0.5 mM EDTA, 0.5% Triton X-100; cells infected with S. flexneri M90T AfaI for 4 h (septins also found in transfected non-infected cells).

Results are given in words; binding and its absence hold for the method and conditions named. Binding seen in cells or lysates may run through a third protein. These calls come from enrichment with a bait or labelling near it, and not all partners need be listed. Sequences can lack the tags named with a protein.

B1: SEPT11 (protein, UniProt Q9NVA2 1-429)
chain: MAVAVGRPSNEELRNLSLSGHVGFDSLPDQLVNKSTSQGFCFNILCVGETGIGKSTLMDTLFNTKFESDPATHNEPGVRLKARSYELQESNVRLKLTIVDTVGFGDQINKDDSYKPIVEYIDAQFEAYLQEELKIKRSLFNYHDTRIHACLYFIAPTGHSLKSLDLVTMKKLDSKVNIIPIIAKADTIAKNELHKFKSKIMSELVSNGVQIYQFPTDEETVAEINATMSVHLPFAVVGSTEEVKIGNKMAKARQYPWGVVQVENENHCDFVKLREMLIRVNMEDLREQTHTRHYELYRRCKLEEMGFKDTDPDSKPFSLQETYEAKRNEFLGELQKKEEEMRQMFVMRVKEKEAELKEAEKELHEKFDLLKRTHQEEKKKVEDKKKELEEEVNNFQKKKAAAQLLQSQAQQSGAQQTKKDKDKKNASFT
On to B1, for which the binding entry was “binds”.
